# Results taken from PubChem BioAssay AID1439 (NMMLSC, 2008).
# Chains of the proteins cited; added tags and fusions are not shown.
# UniProt P09471, whole entry, looked up: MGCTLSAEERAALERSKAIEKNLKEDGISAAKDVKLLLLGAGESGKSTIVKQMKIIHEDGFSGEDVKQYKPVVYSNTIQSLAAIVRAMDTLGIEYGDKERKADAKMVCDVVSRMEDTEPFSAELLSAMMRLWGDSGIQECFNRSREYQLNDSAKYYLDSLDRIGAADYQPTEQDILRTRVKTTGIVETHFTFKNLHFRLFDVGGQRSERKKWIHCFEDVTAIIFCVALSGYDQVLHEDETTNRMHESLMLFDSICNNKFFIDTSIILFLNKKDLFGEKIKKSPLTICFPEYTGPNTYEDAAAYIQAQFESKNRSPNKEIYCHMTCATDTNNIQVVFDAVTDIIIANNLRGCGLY
# The whole screen tested about 220,000 compounds, of which about 770 (0.35%) were called active. Inconclusive results, whose numbers are uncertain, are shown with a selection of clear calls. No stated cut-off is given here; in the data, active means binding response below about 49% or above about 150%; inconclusive means no clear call, values can overlap the other calls; inactive means in between.
# Target: Guanine nucleotide-binding protein G(o) subunit alpha (Homo sapiens) (UniProt P09471)
# Assay: RGS7-Galphao binding modulators, primary screen, biochemical, multiplexed bead flow cytometry (AID 1439);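 further: fluorescent Galphao held in activated GDP-AlF4 state binding bead-coupled RGS7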
# Conditions: at 10 µM, actives lie on both sides
row,SMILES,binding response (% of control)
1,CC(C)N(CCC#N)C(=O)Nc1ccc2c(c1)CCO2,inconclusive: 75.6%
2,O=C(OCCNc1nc(-c2ccccc2)nc2ccccc12)c1ccncc1,inconclusive: 96.3%
3,COC(=O)C1=C(C)N(Cc2ccccc2)C(=O)N[C@H]1c1cccc(C(F)(F)F)c1,inconclusive: 91.5%
4,COC(=O)C1CCN(C(=O)COC(=O)COc2ccc(C#N)cc2)CC1,inconclusive: 90.8%
5,CCN(CC)C(=O)CSc1nnc([C@@H](N)C(C)C)o1,inconclusive: 75.1%
6,COc1ccc(CCNC(=O)C2CC(c3ccccc3C(F)(F)F)=NO2)cc1 (stereo unspecified),inconclusive: 100%
7,O=C(Nc1ccc(-c2nc3ccccc3s2)c(OC(=O)c2ccccc2)c1)c1ccccc1,inactive: 97.4%
8,Cc1cc(C)c(NC(=S)NCCO)c(C)c1,inconclusive: 24.3%
9,CCCN1CCC(=O)N(CCSc2ccc(OC)cc2)CC1,inconclusive: 105%
10,COc1cc2c(cc1OC)C(C)N(C(=O)c1cccs1)CC2 (stereo unspecified),inconclusive: 76.4%
11,CCC1(C)NC(=O)N(CC(=O)Nc2sc3c(c2C(N)=O)CCC3)C1=O (stereo unspecified),inactive: 77.2%
12,C#Cc1ccc([C@@H]2C=C(C(=O)NC3CC3)O[C@H](OCCCCO)C2)cc1,inconclusive: 114%
13,CC1Oc2ccccc2C=C1/C=N/Nc1ccc(C(=O)O)cc1 (stereo unspecified),inconclusive: 86.8%
14,O=C(CSc1nc2cc(Cl)ccc2s1)c1ccco1,inactive: 95%
15,O=[N+]([O-])c1cccnc1Oc1ccc(F)cc1F,inconclusive: 56.9%
16,Cc1cc(=O)[nH]c(SCC(=O)NN(c2ccccc2)c2ccccc2)n1,inconclusive: 64.8%
17,CCOC(=O)N/N=C/c1cccnc1,inconclusive: 109%
18,Nc1nc(NCc2ccco2)nc(Nc2ccc(F)cc2)c1[N+](=O)[O-],inconclusive: 107%
19,CC(C)COc1nc2c(c(=O)n(C)c(=O)n2C)n1C,inconclusive: 146%
20,Cc1ccc(N2C(=O)c3ccc(C(=O)N4CCN(Cc5ccccc5)CC4)cc3C2=O)cc1,inconclusive: 89.7%
21,O=c1[nH]c(/C=C/c2ccc(Br)cc2)nc2c1cnn2-c1ccccc1,inconclusive: 123%
22,O=C(CCN1CCc2ccccc2C1)Nc1ccc(F)c(F)c1,inconclusive: 96.3%
23,COc1ccc(N/C=C2\C(=O)CCc3c2oc2cc(Cl)c(O)c(Cl)c32)cc1,inconclusive: 113%

# Of the compounds above, 2 have an NH in an aromatic ring:
row,SMILES,binding response (% of control)
16,Cc1cc(=O)[nH]c(SCC(=O)NN(c2ccccc2)c2ccccc2)n1,inconclusive: 64.8%
21,O=c1[nH]c(/C=C/c2ccc(Br)cc2)nc2c1cnn2-c1ccccc1,inconclusive: 123%

# Filtered by structure, those above with a CF3 group
row,SMILES,binding response (% of control)
3,COC(=O)C1=C(C)N(Cc2ccccc2)C(=O)N[C@H]1c1cccc(C(F)(F)F)c1,inconclusive: 91.5%
6,COc1ccc(CCNC(=O)C2CC(c3ccccc3C(F)(F)F)=NO2)cc1 (stereo unspecified),inconclusive: 100%

# The list continues:

row,SMILES,binding response (% of control)
1,COc1ccc2oc3ccccc3c(=O)c2c1,inconclusive: 114%
2,CCN(Cc1ccccc1)C(=O)CSc1nncn1C,inconclusive: 89%
3,Cc1cccc(/N=C/C2=C(O)CC(C)(C)CC2=O)n1,inconclusive: 129%
4,O=C(CCNC(=O)Cn1ccc2ccccc2c1=O)NCc1ccccn1,inconclusive: 119%
5,C/C(=N\NC(=S)NC(C)C)c1ccc(Cl)c([N+](=O)[O-])c1,inconclusive: 70.3%
6,CCn1c(=O)c([N+](=O)[O-])c(NCc2ccc3c(c2)OCO3)c2ccccc21,inconclusive: -40%
7,Cc1nc(N2CCN(S(=O)(=O)c3ccccc3C#N)CC2)c2c(-c3cccs3)csc2n1,inconclusive: 111%
8,O=C(O)c1ccc(N/N=C/c2cccc3nccnc23)cc1,inconclusive: 102%
9,CC(=O)CCc1oc2ccc(C)cc2c1-c1ccccc1,inconclusive: 88.3%
10,O=C(O)c1cc(Cl)nc2ccccc12,inconclusive: 113%
11,CC1(C)Cc2ccccc2C(NN=C2CCCC2)=N1,inactive: 88.1%
12,Cc1cc(C(=O)N/N=C/C=C/c2ccccc2)n[nH]1,inconclusive: 115%
13,NS(=O)(=O)c1ccc(CCNC(=O)C2CCN(S(=O)(=O)c3c(Cl)cccc3Cl)CC2)cc1,inconclusive: 74.2%
14,S=C1CCC(c2ccc(Br)cc2)=NN1c1ccccc1,inconclusive: 81.8%
15,COc1ccc2nc(C)c3c(c2c1)OC(C(C)(Cl)Br)C3 (stereo unspecified),inconclusive: 104%
16,COc1ccc(Cn2c(C)nc3c(c(=O)c4ccccc4n3C)c2=O)cc1,inconclusive: 96.2%
17,Cn1c(N)c(C(=O)CSc2nnc(-c3ccccc3F)n2C2CC2)c(=O)n(C)c1=O,inconclusive: 102%
18,COc1ccc(-c2nnn(CC(=O)N3CCN(c4ccc(F)cc4)CC3)n2)cc1,inconclusive: 106%
19,Cc1noc(C)c1COc1ccc(C(=O)OCC(=O)NCCN2C(=O)CSC2=O)cc1,inconclusive: 99.7%
20,Cc1ccc(-c2nc(NC(=O)CSc3ncn[nH]3)ns2)cc1,inconclusive: 64.5%
21,O=C(NC(=S)N1CCCCC1)c1csc([N+](=O)[O-])c1,inconclusive: 377%
22,CC1(c2nnc(-c3ccc(F)cc3)o2)CC(c2ccc(Cl)cc2)=NO1 (stereo unspecified),inconclusive: 100%
23,Cc1ccc(N(CC(O)CN2C(=O)NC(C)(C)C2=O)S(=O)(=O)c2ccc(C)cc2)cc1 (stereo unspecified),inconclusive: 112%

# As a working copy, some entries already given:
row,SMILES,binding response (% of control)
10,O=C(O)c1cc(Cl)nc2ccccc12,inconclusive: 113%
11,CC1(C)Cc2ccccc2C(NN=C2CCCC2)=N1,inactive: 88.1%

# (cont.)

row,SMILES,binding response (% of control)
1,O=C(CN1c2ccccc2Sc2ccccc21)N/N=C/c1ccc(Cl)cc1,inconclusive: 91.1%
2,Cc1nc2scc(-c3ccc(C(C)C)cc3)c2c(=O)n1N,inconclusive: 101%
3,Cc1ccc(Nc2ncc3c(n2)CC(C)CC3=O)c(C)c1 (stereo unspecified),inconclusive: 83.4%
4,CCCCCc1cc(=O)oc2c(C(CCN3CCCC(C)C3)c3cc(OC)c(OC)c(OC)c3)c(OC)cc(OC)c12 (stereo unspecified),inconclusive: 119%
5,O=[N+]([O-])c1cccnc1Oc1ccc(F)cc1,inconclusive: -8.57%
6,CCOc1cc(/C=N/n2cnnc2)ccc1OS(=O)(=O)c1ccccc1,inconclusive: 93.8%
7,Cc1ccc(-c2nnc(N3CCCCC3)c3ccccc23)cc1,inconclusive: 53.9%
8,Nc1nnc(CCS(=O)(=O)c2ccc(Br)cc2)s1,inconclusive: 110%
9,Cc1nc2ccc(NC(=O)c3ccc(N4C(=O)CCC4=O)cc3)cc2s1,inconclusive: 102%
10,CCC1C(=O)Nc2ccccc2N1C(=O)c1ccc(Cl)nc1 (stereo unspecified),inconclusive: 141%
11,Cc1cc2ncn(CCC(=O)NC(C)(C)C)c2cc1C,inactive: 103%
12,NC(=O)c1ccccc1Nc1nc2nc3ccccc3c(=O)n2cc1Br,inconclusive: 120%
13,NNC(=O)CCN1CCN(C(c2ccccc2)c2ccccc2)CC1,inconclusive: 91%
14,CCc1ccc2[nH]c(=O)c(CN(CC3CCCO3)C(=S)NCc3ccco3)cc2c1 (stereo unspecified),inconclusive: 107%
15,CC(=O)Nc1ccc(N/C(N)=N/c2nc(C)cc(C)n2)cc1,inconclusive: 100%
16,CN(C)S(=O)(=O)c1ccc(N2CCCC2)c(C(=O)Nc2ccccc2OC(F)F)c1,inconclusive: 126%
17,CCCC(=O)C1=C(N2CCCC2)CC(C)(C)C(C(=O)OC)C1=O (stereo unspecified),inconclusive: 111%
18,O=C(NCCOc1ccccc1Cl)C(=O)NCCOc1ccccc1Cl,inconclusive: 90.3%
19,Cc1sc2nc(CN(C(=O)NC3CCCCC3)C3CCCC3)[nH]c(=O)c2c1C,inactive: 136%
20,O=C(CN1C(=O)S/C(=C\C=C\c2ccccc2)C1=O)Nc1ccccc1C(=O)O,inconclusive: 77.5%
21,CC1CCN(C(=O)c2ccc(N3C(=O)C4CCC(C)CC4C3=O)cc2)CC1 (stereo unspecified),inconclusive: 154%
22,COc1ccc(N=Cc2cc3c(cc2O)OC(N)=C(C#N)C3c2ccccc2)cc1 (stereo unspecified),inactive: 101%
23,CCOC(=O)N1CCc2c(sc(NC(=O)Cc3ccccc3)c2C(=O)c2ccc(OC)cc2)C1,inconclusive: 111%

row,SMILES,binding response (% of control)
1,Cc1cc(CN(C)Cc2c(C(=O)N3CCCCCCC3)nc3ccc(Cl)cn23)n[nH]1,inactive: 101%
2,CC(C)Oc1ccc(C(=O)NC(Cc2c[nH]c3ccccc23)C(=O)NN)cc1 (stereo unspecified),inconclusive: 101%
3,COc1ccc(-c2noc(C3CCCN(C(=O)c4ccccc4)C3)n2)cc1 (stereo unspecified),inconclusive: 92.1%
4,CN=c1scc(C)n1/N=C/c1ccc(O)c(O)c1O,inactive: 52.8%
5,O=c1c(-c2ccc(Br)cc2)[n+]([O-])c2ccccc2n1OCc1ccccc1,inconclusive: 106%
6,Cc1ccc(C)c(C(=O)COC(=O)c2cc(Cl)nc3ccccc23)c1,inactive: 95.3%
7,CCCc1cc(=O)oc2c(CN3CCN(C)CC3)c(O)c(Cl)cc12,inactive: 98.6%
8,Cc1ccccc1C(=O)Oc1ccc(-c2csnn2)cc1,inconclusive: 113%
9,Cc1nc2ccccc2cc1C(=O)NCc1ccc(F)cc1,inconclusive: 110%
10,CC1SCC(NC(=O)c2ccc(Cl)cc2)CS1 (stereo unspecified),inconclusive: 144%
11,Cn1c(=NC(=O)COc2ccccc2)sc2cccc(F)c21,inconclusive: 87.6%
12,O=C(Nc1ccccc1F)c1c[nH]c(=O)[nH]c1=O,inconclusive: 117%
13,CC(C)c1ccc(C(O)Cc2nc3ccccc3n2C)cc1 (stereo unspecified),inconclusive: 99.1%
14,CN(C)S(=O)(=O)c1ccc(C(=O)NCCN2C(=O)S/C(=C\c3cccnc3)C2=O)cc1,inconclusive: 87.3%
15,O=c1nc(N/N=C/c2c[nH]c3ccccc23)cn[nH]1,inconclusive: 109%
16,COc1cccc(/C=N/NC(=O)Cn2cnc3c2c(=O)n(C)c(=O)n3C)c1,inconclusive: 95.7%
17,O=C(N/N=C/C(Br)=C/c1ccccc1)C(O)c1ccccc1 (stereo unspecified),inconclusive: 108%
18,COc1ccc(C2=NN(S(=O)(=O)c3ccccc3)C(c3ccccc3)C2)cc1 (stereo unspecified),inconclusive: 117%
19,C=CCn1c(SCC(=O)NC2CC2)nc2sc(CC)cc2c1=O,inconclusive: 103%
20,O=C(CSc1nc(-c2ccc(F)cc2)nc2c1Cc1ccccc1O2)Nc1cccc(C(=O)O)c1,inconclusive: 118%
21,O=c1[nH]c(CSc2ncn[nH]2)nc2ccccc12,inconclusive: 147%
22,CCOc1ccc(NC(=S)NCc2ccc3c(c2)OCO3)cc1,inconclusive: 123%
